Experimental data as given in ChEMBL document CHEMBL4196084 (Eur J Med Chem, 2018).

How the values were obtained:
[1] = in vitro; details: PAMPA
[2] = in vitro; details: PAMPA; remark: listed apart in the source

## COc1cc2c(cc1OC)C(=O)C(CC1CCN(Cc3ccccc3)CC1)C2 (configuration not stated) [DONEPEZIL]
[1]
  Papp at 100 µM: 6.8 ×10⁻⁶ cm/s
[2]
  Papp at 100 µM: 8.9 ×10⁻⁶ cm/s
